Measurements from patent publication US20240317732A1, “A NEW MOLECULAR SCAFFOLD FOR TARGETING HRPN13” (THE UNITED STATES OF AMERICA AS REPRESENTED BY THE …, priority 2021, published 2024).

Assay: LC-MS reactivity with reduced L-glutathione
Details: 40 μM compound, 2 mM reduced L-glutathione, 2 hours, 4° C.

## Cl.N[C@@H](Cc1ccccc1)C(=O)N1C/C(=C/c2ccc(Cl)c(Cl)c2)C(=O)/C(=C\c2ccc(Cl)c(Cl)c2)C1 [RA190]
  abundance of glutathione product with one molecule ligated: 14%
  abundance of glutathione product with two molecules ligated: 30%
